According to patent US11192890B2, “FGFR kinase inhibitors and pharmaceutical uses” (AUCKLAND UNISERVICES LIMITED, priority 2017, dated 2021):
Some of these results come from one statement about several compounds together.

Tested on: FGFR1 in H520 cells (phospho-ERK1/2)
Assay: Drug washout Western blot assay, H520 cells
Assay type: cell-based
Details: 2 hours exposure, tested at 100, 300 and 600 nM

| Compound | concentration required to suppress FGFR1 signalling through phospho-ERK1/2 [nM] |
| --- | --- |
| COc1cc(OC)c(Cl)c(N2Cc3cnc(NC(C)C)nc3N([C@H]3CCN(C(=O)/C=C/C[N+](C)(C)Cc4c([N+](=O)[O-])ncn4C)C3)C2=O)c1Cl.[Br-] [Compound 201, (S,E)-4-(3-(3-(2,6-dichloro-3,5-dimethoxyphenyl)-7-(isopropylamino)-2-oxo-3,4-dihydropyrimido[4,5-d]pyrimidin-1(2H)-yl)pyrrolidin-1-yl)-N,N-dimethyl-N-((1-methyl-4-nitro-1H-imidazol-5-yl)methyl)-4-oxobut-2-en-1-aminium bromide] | > 100 |
| COc1cc(OC)c(Cl)c(N2Cc3cnc(NC(C)C)nc3N(C3CCN(C(=O)/C=C/C[N+](C)(C)Cc4c([N+](=O)[O-])ncn4C)CC3)C2=O)c1Cl.[Br-] [Compound 202, (E)-4-(4-(3-(2,6-dichloro-3,5-dimethoxyphenyl)-7-(isopropylamino)-2-oxo-3,4-dihydropyrimido[4,5-d]pyrimidin-1(2H)-yl)piperidin-1-yl)-N,N-dimethyl-N-((1-methyl-4-nitro-1H-imidazol-5-yl)methyl)-4-oxobut-2-en-1-aminium bromide] | > 100 |
